Some values come without a unit; they compare only within their column.
Columns and labels:
[1] = Serum ethanolamine phospholipid levels in human cohorts (dementia severity, post-mortem pathology, age) by flow-injection MS/MS
[2] = Serum ethanolamine phospholipid ratios to PtdEt 16:0/18:0 (M01) in human cohorts
[3] = serum, females, post mortem SDAT
[4] = serum, females, post mortem control

Compound: CC/C=C\C/C=C\C/C=C\C/C=C\C/C=C\C/C=C\CCC(=O)OC(COCCCCCCCCCCCCCCCC)COP(=O)(O)OCCN (centres unmarked) [Metabolite M09, Plasmanyl 16:0/22:6]
- Ratio of serum levels ([1]; AD, All to CN, Male): 0.658
- Ratio of serum levels ([1]; ADAS 5-19 to CN, Male): 0.731
- Ratio of serum levels ([1]; ADAS 20-39 to 5-19, Male): 0.895
- Ratio of serum levels ([1]; ADAS 20-39 to CN, Male): 0.654
- Ratio of serum levels ([1]; ADAS 40-70 to 5-19, Male): 0.646
- Ratio of serum levels ([1]; ADAS 40-70 to 20-39, Male): 0.721
- Ratio of serum levels ([1]; ADAS 40-70 to CN, Male): 0.472
- Serum level, Mean ([1]; Cognitive Normal, Female): 0.019
- Average serum level, Mean ([1]; Cognitive Normal, Male): 0.022
- Serum level, Mean ([1]; Post Mortem Ctl, Male): 0.006
- Serum level, Mean ([1]; Post Mortem SDAT Male): 0.003
- Ratio of serum levels ([1]; Post mortem SDAT vs Control, Male): 0.269
- Serum level, Mean ([1]; SDAT, ADAS 5-19, Female): 0.015
- Average serum level, Mean ([1]; SDAT, ADAS 5-19, Male): 0.016
- Serum level, Mean ([1]; SDAT, ADAS 20-39, Female): 0.014
- Average serum level, Mean ([1]; SDAT, ADAS 20-39, Male): 0.015
- Serum level, Mean ([1]; SDAT, ADAS 40-70, Female): 0.012
- Average serum level, Mean ([1]; SDAT, ADAS 40-70, Male): 0.011
- Serum level, Mean ([1]; SDAT_all, Female): 0.013
- Average serum level, Mean ([1]; SDAT_all, Male): 0.015
- Ratio, ADAS 5-19 to CN, Female ([1]; serum level ratio, females, ADAS 5-19 vs CN): 0.777
- Ratio, ADAS 20-39 to 5-19, Female ([1]; serum level ratio, females, ADAS 20-39 vs ADAS 5-19): 0.903
- Ratio, ADAS 20-39 to CN, Female ([1]; serum level ratio, females, ADAS 20-39 vs CN): 0.702
- Ratio, ADAS 40-70 to 5-19, Female ([1]; serum level ratio, females, ADAS 40-70 vs ADAS 5-19): 0.802
- Ratio, ADAS 40-70 to 20-39, Female ([1]; serum level ratio, females, ADAS 40-70 vs ADAS 20-39): 0.889
- Ratio, ADAS 40-70 to CN, Female ([1]; serum level ratio, females, ADAS 40-70 vs CN): 0.624
- Ratio, 50-59 vs. 40-49, Female ([1]; serum level ratio, females, age 50-59 vs 40-49): 0.934
- Ratio, 60-69 vs. 40-49, Female ([1]; serum level ratio, females, age 60-69 vs 40-49): 0.784
- Ratio, 70+ vs. 40-49, Female ([1]; serum level ratio, females, age 70+ vs 40-49): 0.912
- Ratio, AD, All to CN, Female ([1]; serum level ratio, females, all AD vs cognitively normal): 0.696
- Ratio, Autopsy AD vs. Control, Female ([1]; serum level ratio, females, autopsy AD vs control): 0.566
- Ratio, 50-59 vs. 40-49, Male ([1]; serum level ratio, males, age 50-59 vs 40-49): 1.443
- Ratio, 60-69 vs. 40-49, Male ([1]; serum level ratio, males, age 60-69 vs 40-49): 1.473
- Ratio, 70+ vs. 40-49, Male ([1]; serum level ratio, males, age 70+ vs 40-49): 1.701
- Mean serum level, Age Ctl, 30-39, Female ([1]; serum, females, age 30-39): 0.021
- Mean serum level, Age Ctl, 40-49, Female ([1]; serum, females, age 40-49): 0.021
- Mean serum level, Age Ctl, 50-59, Female ([1]; serum, females, age 50-59): 0.020
- Mean serum level, Age Ctl, 60-69, Female ([1]; serum, females, age 60-69): 0.017
- Mean serum level, Age Ctl, 70+, Female ([1]; serum, females, age 70+): 0.019
- Mean serum level, Post Mortem SDAT, Female [1, 3]: 0.002
- Mean serum level, Post Mortem Ctl, Female [1, 4]: 0.005
- Mean serum level, Age Ctl, 30-39, Male ([1]; serum, males, age 30-39): 0.019
- Mean serum level, Age Ctl, 40-49, Male ([1]; serum, males, age 40-49): 0.013
- Mean serum level, Age Ctl, 50-59, Male ([1]; serum, males, age 50-59): 0.019
- Mean serum level, Age Ctl, 60-69, Male ([1]; serum, males, age 60-69): 0.019
- Mean serum level, Age Ctl, 70+, Male ([1]; serum, males, age 70+): 0.022
- Ratio of ethanolamine phospholipid ratios to M01 between cohorts ([2]; AD, All to CN, Male): 0.645
- Ratio of ethanolamine phospholipid ratios to M01 between cohorts ([2]; ADAS 5-19 to CN, Male): 0.713
- Ratio of ethanolamine phospholipid ratios to M01 between cohorts ([2]; ADAS 20-39 to CN, Male): 0.654
- Ratio of ethanolamine phospholipid ratios to M01 between cohorts ([2]; ADAS 40-70 to CN, Male): 0.476
- Average serum ethanolamine phospholipid ratio to M01, Mean ([2]; Cognitive Normal, Male, serum): 0.195
- Average serum ethanolamine phospholipid ratio to M01, Mean ([2]; SDAT, ADAS 5-19, Male, serum): 0.139
- Average serum ethanolamine phospholipid ratio to M01, Mean ([2]; SDAT, ADAS 20-39, Male, serum): 0.127
- Average serum ethanolamine phospholipid ratio to M01, Mean ([2]; SDAT, ADAS 40-70, Male, serum): 0.093
- Average serum ethanolamine phospholipid ratio to M01, Mean ([2]; SDAT_all, Male, serum): 0.126
- Ethanolamine Phospholipid Ratio to M01, Mean, Age Ctl, 30-39, Female ([2]; human serum, females aged 30-39): 0.204
- Ethanolamine Phospholipid Ratio to M01, Mean, Age Ctl, 40-49, Female ([2]; human serum, females aged 40-49): 0.194
- Ethanolamine Phospholipid Ratio to M01, Mean, Age Ctl, 50-59, Female ([2]; human serum, females aged 50-59): 0.197
- Ratio of Ethanolamine Phospholipid Ratio to M01, 50-59 vs. 40-49, Female ([2]; human serum, females aged 50-59 vs. females aged 40-49): 1.016
- Ethanolamine Phospholipid Ratio to M01, Mean, Age Ctl, 60-69, Female ([2]; human serum, females aged 60-69): 0.139
- Ratio of Ethanolamine Phospholipid Ratio to M01, 60-69 vs. 40-49, Female ([2]; human serum, females aged 60-69 vs. females aged 40-49): 0.717
- Ethanolamine Phospholipid Ratio to M01, Mean, Age Ctl, 70+_Female ([2]; human serum, females aged 70+): 0.163
- Ratio of Ethanolamine Phospholipid Ratio to M01, 70+ vs. 40-49, Female ([2]; human serum, females aged 70+ vs. females aged 40-49): 0.841
- Ratio of Ethanolamine Phospholipid Ratio to M01, 50-59 vs. 40-49, Male ([2]; human serum, males aged 50-59 vs. males aged 40-49): 1.404
- Ratio of Ethanolamine Phospholipid Ratio to M01, 60-69 vs. 40-49, Male ([2]; human serum, males aged 60-69 vs. males aged 40-49): 1.243
- Ratio of Ethanolamine Phospholipid Ratio to M01, 70+ vs. 40-49, Male ([2]; human serum, males aged 70+ vs. males aged 40-49): 1.391
- Ratio of ethanolamine phospholipid ratio to M01, ADAS 5-19 to CN, Female ([2]; serum, females, ADAS 5-19 vs cognitive normal): 0.837
- Ratio of ethanolamine phospholipid ratio to M01, ADAS 20-39 to 5-19, Female ([2]; serum, females, ADAS 20-39 vs ADAS 5-19): 0.884
- Ratio of ethanolamine phospholipid ratio to M01, ADAS 20-39 to CN, Female ([2]; serum, females, ADAS 20-39 vs cognitive normal): 0.740
- Ratio of ethanolamine phospholipid ratio to M01, ADAS 40-70 to 5-19, Female ([2]; serum, females, ADAS 40-70 vs ADAS 5-19): 0.738
- Ratio of ethanolamine phospholipid ratio to M01, ADAS 40-70 to 20-39, Female ([2]; serum, females, ADAS 40-70 vs ADAS 20-39): 0.835
- Ratio of ethanolamine phospholipid ratio to M01, ADAS 40-70 to CN, Female ([2]; serum, females, ADAS 40-70 vs cognitive normal): 0.618
- Ethanolamine phospholipid ratio to M01, Mean, SDAT, ADAS 5-19, Female ([2]; serum, females, SDAT ADAS 5-19): 0.140
- Ethanolamine phospholipid ratio to M01, Mean, SDAT, ADAS 20-39, Female ([2]; serum, females, SDAT ADAS 20-39): 0.123
- Ethanolamine phospholipid ratio to M01, Mean, SDAT, ADAS 40-70, Female ([2]; serum, females, SDAT ADAS 40-70): 0.103
- Ratio of ethanolamine phospholipid ratio to M01, AD, All to CN, Female ([2]; serum, females, all AD vs cognitive normal): 0.724
- Ethanolamine phospholipid ratio to M01, Mean, SDAT_all Female ([2]; serum, females, all SDAT): 0.121
- Ratio of ethanolamine phospholipid ratio to M01, Autopsy AD vs. Control, Female ([2]; serum, females, autopsy AD vs post mortem control): 0.725
- Ethanolamine phospholipid ratio to M01, Mean, Cognitive Normal, Female ([2]; serum, females, cognitive normal): 0.167
- Ethanolamine phospholipid ratio to M01, Mean, Post Mortem SDAT Female [2, 3]: 0.024
- Ethanolamine phospholipid ratio to M01, Mean, Post Mortem Ctl, Female [2, 4]: 0.033
- Ratio of ethanolamine phospholipid ratio to M01, ADAS 20-39 to 5-19, Male ([2]; serum, males, SDAT ADAS 20-39 vs ADAS 5-19): 0.917
- Ratio of ethanolamine phospholipid ratio to M01, ADAS 40-70 to 5-19, Male ([2]; serum, males, SDAT ADAS 40-70 vs ADAS 5-19): 0.668
- Ratio of ethanolamine phospholipid ratio to M01, ADAS 40-70 to 20-39, Male ([2]; serum, males, SDAT ADAS 40-70 vs ADAS 20-39): 0.728
- Ethanolamine phospholipid ratio to M01, Mean, Age Ctl, 30-39, Male ([2]; serum, males, age control 30-39): 0.161
- Ethanolamine phospholipid ratio to M01, Mean, Age Ctl, 40-49, Male ([2]; serum, males, age control 40-49): 0.124
- Ethanolamine phospholipid ratio to M01, Mean, Age Ctl, 50-59, Male ([2]; serum, males, age control 50-59): 0.173
- Ethanolamine phospholipid ratio to M01, Mean, Age Ctl, 60-69, Male ([2]; serum, males, age control 60-69): 0.154
- Ethanolamine phospholipid ratio to M01, Mean, Age Ctl, 70+_Male ([2]; serum, males, age control 70+): 0.172
- Ethanolamine phospholipid ratio to M01, Mean, Post Mortem SDAT Male ([2]; serum, males, post mortem SDAT): 0.018
- Ratio of ethanolamine phospholipid ratio to M01, SDAT vs Control (post mortem, males) ([2]; serum, males, post mortem SDAT vs post mortem control): 0.341
- Ethanolamine phospholipid ratio to M01, Mean, Post Mortem Ctl, Male ([2]; serum, males, post mortem control): 0.052

Reference: US9517222B2, “Method for the treatment of senile dementia of the Alzheimer's type” (Phenomenome Discoveries Inc., priority 2007, dated 2016)
